Reference: PubChem BioAssay AID248 (DTP/NCI, 2004)
The list does not hold the whole screen: it is rich in T/C values a quarter to a half above the control, in often repeated tests (any T/C) and in doses without a T/C. Other doses and runs of a compound stand elsewhere. T/C is the treated group as % of the vehicle group. Some doses have a count of surviving animals in place of a T/C: the source files T/C as zero there, which appears to mark a toxic dose or a test without result, not a measured value. Some doses without a T/C left all or most animals alive at the check, yet need not have been tolerated: survival well below the control is almost never listed, so the zero probably covers shortened survival too. Survivors were counted at the toxicity check, usually on the fifth day, unless a day is given; later deaths do not show. Schedules are NCI's codes, read here as Q, the interval in days (D) or hours (H), X, the number of doses. Some entries were tested several times; the values are given in rising order. Some schedules carry Z or #; the key to these is not given. Where survival is the endpoint, this PubChem deposit counts one and a half times the control or more as active, and values a quarter to a half above the control carry no call in these data; other NCI protocols may use other cut-offs. Some T/C values are followed by the survivors on the day toxicity was checked, most often the fifth; without a count, all were alive then.

Test system: L1210 leukemia ip in BDF1 mice, survival T/C
Assay: NCI In Vivo Anticancer Drug Screen. Data for tumor model L1210 Leukemia (intraperitoneal) in B6D2F1 (BDF1) mice
Details: higher T/C = longer survival
[1] = T/C endpoint: mean survival time, dose: 200.0 mg/kg/injection, schedule: Q01DX009 (ip), vehicle: saline with Tween-80
[2] = T/C endpoint: mean survival time, dose: 400.0 mg/kg/injection, schedule: Q04DX003 (ip), vehicle: saline with Tween-80
[3] = T/C endpoint: mean survival time, dose: 100.0 mg/kg/injection, schedule: Q01DX009 (ip), vehicle: saline with Tween-80
[4] = T/C endpoint: mean survival time, dose: 400.0 mg/kg/injection, schedule: Q01DX009 (ip), vehicle: saline with Tween-80
[5] = T/C endpoint: mean survival time, dose: 400.0 mg/kg/injection, schedule: Q04DX003 (ip), vehicle: Klucel (hydroxypropylcellulose) (HPC)
[6] = T/C endpoint: mean survival time, dose: 400.0 mg/kg/injection, schedule: Q01DX001 (ip), vehicle: saline with Tween-80
[7] = T/C endpoint: mean survival time, dose: 200.0 mg/kg/injection, schedule: Q04DX003 (ip), vehicle: saline
[8] = T/C endpoint: mean survival time, dose: 400.0 mg/kg/injection, schedule: Q04DX003 (ip), vehicle: saline
[9] = T/C endpoint: mean survival time, dose: 50.0 mg/kg/injection, schedule: Q01DX009 (ip), vehicle: Klucel (hydroxypropylcellulose) (HPC)
[10] = T/C endpoint: mean survival time, dose: 100.0 mg/kg/injection, schedule: Q01DX009 (ip), vehicle: Klucel (hydroxypropylcellulose) (HPC)
[11] = T/C endpoint: mean survival time, dose: 200.0 mg/kg/injection, schedule: Q04DX002 (ip), vehicle: Klucel (hydroxypropylcellulose) (HPC)
[12] = T/C endpoint: mean survival time, dose: 400.0 mg/kg/injection, schedule: Q04DX002 (ip), vehicle: Klucel (hydroxypropylcellulose) (HPC)
[13] = T/C endpoint: mean survival time, dose: 200.0 mg/kg/injection, schedule: Q01DX009 (ip), vehicle: Klucel (hydroxypropylcellulose) (HPC)
[14] = T/C endpoint: mean survival time, dose: 200.0 mg/kg/injection, schedule: Q01DX009 (ip), vehicle: saline

O=C(CCCc1ccc(N(CCCl)CCCl)cc1)Nc1ncccn1
survivor count (T/C endpoint: mean survival time, dose: 24.0 mg/kg/injection, schedule: Q01DX015 (ip), vehicle: carboxymethylcellulose (CMC)): 0 of 6
T/C (T/C endpoint: mean survival time, dose: 50.0 mg/kg/injection, schedule: Q01DX001 (ip), vehicle: saline): 128 % of control [4 of 6 alive]

Cc1c(Cl)cccc1NC(=O)Oc1cc(Cl)c(Cl)cc1Cl
survivor count [1]: 1 of 6
survivor count [2]: 2 of 6

O=C1C=C(O)c2cc(Br)ccc2C1=O.[Ag]
survivor count (T/C endpoint: mean survival time, dose: 200.0 mg/kg/injection, schedule: Q04DX002 (ip), vehicle: saline): 0 of 3
survivor count (T/C endpoint: mean survival time, dose: 400.0 mg/kg/injection, schedule: Q04DX002 (ip), vehicle: saline): 0 of 3

COc1ccc(C)cc1NC(=S)NC(=O)c1ccc(Cl)cc1Cl
T/C [3]: 95, 96, 97 % of control
survivor count [3]: 3 of 3
T/C [1]: 96 % of control [5 of 6 alive]
survivor count [1]: 3 of 3 and 6 of 6
survivor count [4]: 5 of 6
survivor count [2]: 6 of 6

COc1cccc(OC)c1C#N
survivor count [5]: 6 of 6

CSC1SCC2C(=O)N(C)C(C(C)C)C(=O)OCC(NC(=O)c3cnc4ccccc4n3)C(=O)NC(C)C(=O)N(C)C1C(=O)N(C)C(C(C)C)C(=O)OCC(NC(=O)c1cnc3ccccc3n1)C(=O)NC(C)C(=O)N2C (stereo unspecified)
T/C (T/C endpoint: mean survival time, dose: 30.0 micrograms/kg/injection, schedule: Q01DX009 (ip), vehicle: saline with Tween-80): 126 % of control

CC(C[P+](c1ccccc1)(c1ccccc1)c1ccccc1)C(O)(C(=O)c1ccccc1)c1ccccc1 (stereo unspecified)
survivor count (T/C endpoint: mean survival time, dose: 100.0 mg/kg/injection, schedule: Q01DX001 (ip), vehicle: saline with Tween-80): 0 of 6
survivor count (T/C endpoint: mean survival time, dose: 200.0 mg/kg/injection, schedule: Q01DX001 (ip), vehicle: saline with Tween-80): 0 of 6
survivor count [6]: 0 of 6

CN(C)C(=O)c1cc[n+](Cc2ccc(Cl)cc2)cc1
survivor count [7]: 6 of 6
survivor count [8]: 1 of 6

CC(=O)Oc1ccc2ccccc2c1CN(Cc1c(OC(C)=O)ccc2ccccc12)C(C)=O
survivor count (T/C endpoint: mean survival time, dose: 200.0 mg/kg/injection, schedule: Q01DX001 (ip), vehicle: other): 6 of 6

NC(CCl)=NCC1CCCCCCC1
survivor count (T/C endpoint: mean survival time, dose: 6.25 mg/kg/injection, schedule: Q01DX009 (ip), vehicle: Klucel (hydroxypropylcellulose) (HPC)): 3 of 3
survivor count (T/C endpoint: mean survival time, dose: 12.5 mg/kg/injection, schedule: Q01DX009 (ip), vehicle: Klucel (hydroxypropylcellulose) (HPC)): 3 of 3
survivor count (T/C endpoint: mean survival time, dose: 25.0 mg/kg/injection, schedule: Q01DX009 (ip), vehicle: Klucel (hydroxypropylcellulose) (HPC)): 3 of 3
survivor count [9]: 2 of 3
survivor count [10]: 0 of 3
survivor count [11]: 0 of 3
survivor count [12]: 0 of 3

O=[N+]([O-])c1ccc(S)c(Cl)c1
survivor count [9]: 0 of 6
survivor count [10]: 1 of 6
survivor count [13]: 0 of 6
survivor count (T/C endpoint: mean survival time, dose: 400.0 mg/kg/injection, schedule: Q01DX009 (ip), vehicle: Klucel (hydroxypropylcellulose) (HPC)): 0 of 6

C[N+]1(C)C2CC(=O)CC1C1CC12 (stereo unspecified) (tested in a mixture with another compound)
survivor count [8]: 3 of 6

C=C(Br)S(=O)(=O)CC
survivor count (T/C endpoint: mean survival time, dose: 50.0 mg/kg/injection, schedule: Q04DX002 (ip), vehicle: Klucel (hydroxypropylcellulose) (HPC)): 1 of 3
survivor count (T/C endpoint: mean survival time, dose: 100.0 mg/kg/injection, schedule: Q04DX002 (ip), vehicle: Klucel (hydroxypropylcellulose) (HPC)): 0 of 3
survivor count [11]: 0 of 3
survivor count [12]: 0 of 3

CCC(C)C(C(=O)OCCC[N+]1(C)CCCCC1)c1ccccc1 (stereo unspecified)
survivor count (T/C endpoint: mean survival time, dose: 100.0 mg/kg/injection, schedule: Q04DX003 (ip), vehicle: saline): 3 of 6
survivor count [7]: 0 of 6
survivor count [8]: 0 of 6

N=C(N)c1ccc(OCCCCOc2ccc(N)cc2Cl)cc1
survivor count [13]: 0 of 3

CC(N)Cc1cn(C)c2ccccc12 (stereo unspecified)
survivor count [14]: 0 of 6
survivor count [7]: 3 of 4
survivor count (T/C endpoint: mean survival time, dose: 400.0 mg/kg/injection, schedule: Q01DX009 (ip), vehicle: saline): 0 of 6
survivor count [8]: 0 of 4

O=C(Nc1ccccc1)C(Cl)S(=O)(=O)O (stereo unspecified)
survivor count [6]: 0 of 3

Nc1nc2ncc(CNc3nc(C(=O)NC(CCC(=O)O)C(=O)O)cs3)nc2c(=O)[nH]1 (stereo unspecified)
survivor count (T/C endpoint: mean survival time, dose: 300.0 mg/kg/injection, schedule: Q01DX001 (ip), vehicle: other): 0 of 6

O=CC(O)CO (stereo unspecified)
survivor count (T/C endpoint: mean survival time, dose: 1400.0 mg/kg/injection, schedule: Q01DX Z (ip), vehicle: other): 3 of 6
T/C (T/C endpoint: median survival time, dose: 352.0 mg/kg/injection, schedule: Q01DX005 (ip), vehicle: other): 126 % of control
T/C (T/C endpoint: median survival time, dose: 550.0 mg/kg/injection, schedule: Q01DX005 (ip), vehicle: other): 126 % of control
survivor count (T/C endpoint: median survival time, dose: 860.0 mg/kg/injection, schedule: Q01DX005 (ip), vehicle: saline sonified): 2 of 8
survivor count (T/C endpoint: median survival time, dose: 1604.0 mg/kg/injection, schedule: Q01DX001 (ip), vehicle: saline sonified): 2 of 8
survivor count (T/C endpoint: median survival time, dose: 1782.0 mg/kg/injection, schedule: Q01DX001 (ip), vehicle: saline sonified): 5 of 8

CC(C)C1=CC2=CCC3C(C)(CN)CCCC3(C)C2CC1CCN (stereo unspecified)
survivor count (T/C endpoint: mean survival time, dose: 10.0 mg/kg/injection, schedule: Q04DX003 (ip), vehicle: saline with Tween-80): 2 of 6
survivor count (T/C endpoint: mean survival time, dose: 20.0 mg/kg/injection, schedule: Q04DX003 (ip), vehicle: saline with Tween-80): 2 of 6
survivor count (T/C endpoint: mean survival time, dose: 100.0 mg/kg/injection, schedule: Q04DX003 (ip), vehicle: saline with Tween-80): 0 of 6
survivor count (T/C endpoint: mean survival time, dose: 200.0 mg/kg/injection, schedule: Q04DX003 (ip), vehicle: saline with Tween-80): 0 of 6
survivor count [2]: 0 of 6

Cc1cccc(NC(=S)NC(=O)CCc2ccccc2)c1C
T/C [3]: 100 and 103 % of control
survivor count [3]: 3 of 3
T/C [1]: 90 % of control
survivor count [1]: 3 of 3 and 6 of 6
survivor count (T/C endpoint: mean survival time, dose: 200.0 mg/kg/injection, schedule: Q04DX002 (ip), vehicle: saline with Tween-80): 3 of 3
survivor count [4]: 0 of 3 and 1 of 6

N#CC[CH2][Sn]([Br])([Br])[CH2]CC#N
survivor count (T/C endpoint: mean survival time, dose: 25.0 mg/kg/injection, schedule: Q01DX009 (ip), vehicle: saline): 3 of 3
survivor count (T/C endpoint: mean survival time, dose: 50.0 mg/kg/injection, schedule: Q01DX009 (ip), vehicle: saline): 3 of 3
survivor count (T/C endpoint: mean survival time, dose: 100.0 mg/kg/injection, schedule: Q01DX009 (ip), vehicle: saline): 1 of 3
survivor count [14]: 0 of 3

CC(C)C1CCC2(CC1)CC(=O)N(CCC[N+](C)(C)C)C(=O)C2
survivor count (T/C endpoint: mean survival time, dose: 100.0 mg/kg/injection, schedule: Q01DX001 (ip), vehicle: carboxymethylcellulose (CMC)): 2 of 4
survivor count (T/C endpoint: mean survival time, dose: 200.0 mg/kg/injection, schedule: Q01DX001 (ip), vehicle: carboxymethylcellulose (CMC)): 0 of 4
survivor count (T/C endpoint: mean survival time, dose: 400.0 mg/kg/injection, schedule: Q01DX001 (ip), vehicle: carboxymethylcellulose (CMC)): 0 of 4

CCCCSP(=S)(Cc1ccccc1)SCCCC
survivor count [5]: 0 of 6

CNC(=O)Oc1cccc(NC(=O)C=C(C)C)c1
survivor count [4]: 6 of 6

CNC[C@@H](O)c1ccc(O)c(O)c1
survivor count (T/C endpoint: mean survival time, dose: 1.8 mg/kg/injection, schedule: Q01DX001 (ip), vehicle: saline): 6 of 6
survivor count (T/C endpoint: mean survival time, dose: 2.7 mg/kg/injection, schedule: Q01DX001 (ip), vehicle: saline): 6 of 6
survivor count (T/C endpoint: mean survival time, dose: 5.4 mg/kg/injection, schedule: Q04DX003 (ip), vehicle: saline): 2 of 6

CC(=O)n1c2ccccc2c2nc3cnccc3nc21
survivor count (T/C endpoint: mean survival time, dose: 128.0 mg/kg/injection, schedule: Q01DX005 (ip), vehicle: saline): 2 of 6
